Reference: patent US7354912B2, “Unique compositions of zwitterionic phospholipids and bisphosphonates and use of the compositions as bisphosphate delivery systems with reduced GI toxicity” (Board of Reagents, University of Texas System, priority 2000, dated 2008)

Key:
gastric mucosa [1] = assay: acute bisphosphonate/indomethacin gastric injury model of Blank et al. (gastric lesion score, gastric bleeding); type: in vivo, rat; details: rats, comparison of three bisphosphonates
Source text: The experiments investigated the effects of different bisphosphonates on the surface hydrophobicity and phospholipid concentration of the antral mucosa, using the animal model of Blank et. al. (Blank M A, Ems B L, Gibson G W, Myers W R, Berman S K, Phipps R J, Smith P N, Dig Dis Sci, 42, 281-288 (1997)), and compared the effects of these surface changes to the gastric toxicity of these drugs.
Looking at FIG. 2, an antrum lesion score is plotted against time.
The model and the ability for phospholipids to inhibit bisphosphonate GI toxicity was investigated in pilot preclinical studies using the rodent model of Blank et. al. (Blank M A, Ems B L, Gibson G W, Myers W R, Berman S K, Phipps R J, Smith P N, Dig Dis Sci, 42, 281-288 (1997)), where the bisphosphonate test drug was administered simultaneously with indomethacin.
60 mg of Phospholipon 90G (90-93% pure PC) was dissolved in chloroform in a tube. […] The organic solvent was removed under nitrogen and resulting PC material was left under vacuum overnight to form a PC film in the tube. […] The solution was then added to the dried PC film in the tube. The mixture was sonicated in a both type sonicator at room temperature for 5 min., prior to administration to fasted rats.
20 mg of dipalmitoyl PC (DPPC) and Phospholipon 90 G were dissolved in chloroform in separate tubes, and dried as described in Example 1. […]

gastric mucosa [2] = details: rats, intragastric high doses, with indomethacin; cited from earlier work

In the case of NCCCC(O)(P(=O)(O)O)P(=O)(O)O [alendronate, 4-amino-1-hydroxybutylidene-1,1-bisphosphonic acid], the “order of gastrotoxicity (FIG. 4)” value (gastric mucosa [1]) is given as “pamidronate>>alendronate>risedronate” and the “irritation of the gastric mucosa (comparison of bisphosphonates)” value (gastric mucosa [2]) is given as “more irritating”.
